# Experimental data reported in publication PMC7701097.
# Experiments:
# [1] = biological target: OsBRCA2 (full length) (rice (Oryza sativa)); assay: two-hybrid; yeast two-hybrid (Clontech); OsBRCA2 or its BRC1-6 fragment in pGBKT7, OsRAD51A1, OsRAD51A2, OsDMC1A, OsDMC1B in pGADT7; SD-4 (-Leu/-Trp/-His/-Ade/+ X-α-gal) selection medium
# [2] = biological target: OsBRCA2 truncation containing BRC1-6 motifs (rice (Oryza sativa)); assay: as above
binding [1],binding [2],Binder
binds,binds,"OsDMC1A (protein, UniProt Q7GBF8 1-344) MAPSKQYSEGGQLQLMDAERIEEEEECFESIDKLISQGINSGDVKKLQDAGIYTCNGLMMHTKKSLTGIKGLSEAKVDKICEAAEKLLSQGFITGSDLLIKRKSVVRITTGSQALDKLLGGGIETLCITEAFGEFRSGKTQLAHTLCVSAQLPIHMHGGNGKVAYIDTEGTFRPERIVPIAERFGMDANAVLDNIIYARAYTYEHQYNLLLGLAAKMAEEPFRLLIVDSVIALFRVDFSGRGELAERQQKLAQMLSRLTKIAEEFNVAVYITNQVIADPGGGMFITDLKKPAGGHVLAHAATIRLMLRKGKGEQRVCKIFDAPNLPEGEAVFQVTSGGIMDAKD"
binds,binds,"OsDMC1B (protein, UniProt Q7GBF7 1-344) MAPSKQYDEGGQLQLMDAERIEEEEECFESIDKLISQGINSGDVKKLQDAGIYTCNGLMMHTKKSLTGIKGLSEAKVDKICEAAEKLLSQGFMTGSDLLIKRKSVVRITTGSQALDELLGGGIETLCITEAFGEFRSGKTQLAHTLCVSTQLPIHMHGGNGKVAYIDTEGTFRPERIVPIAERFGMDANAVLDNIIYARAYTYEHQYNLLLGLAAKMAEEPFRLLIVDSVIALFRVDFSGRGELAERQQKLAQMLSRLTKIAEEFNVAVYITNQVIADPGGGMFITDPKKPAGGHVLAHAATIRLMLRKGKGEQRVCKIFDAPNLPEGEAVFQVTSGGIMDAKD"

# These are yes or no findings as the source states them, for the method shown. Binding can be weak; no strength is given.
